Results from patent publication US20220025045A1.
Substitutions are numbered along the chain they refer to. These are yes or no findings as the source states them, for the method shown. Some entries that bind do so weakly or less than the wild type. Blank lines part the entries; values can stand above or below the binder they belong to.

Protein sequences, listed by entry. Tags and fused reporters are not part of them. Lines headed by an entry give the natural chain unless they say otherwise; changes in a name come on top.
UniProt Q8NHL6: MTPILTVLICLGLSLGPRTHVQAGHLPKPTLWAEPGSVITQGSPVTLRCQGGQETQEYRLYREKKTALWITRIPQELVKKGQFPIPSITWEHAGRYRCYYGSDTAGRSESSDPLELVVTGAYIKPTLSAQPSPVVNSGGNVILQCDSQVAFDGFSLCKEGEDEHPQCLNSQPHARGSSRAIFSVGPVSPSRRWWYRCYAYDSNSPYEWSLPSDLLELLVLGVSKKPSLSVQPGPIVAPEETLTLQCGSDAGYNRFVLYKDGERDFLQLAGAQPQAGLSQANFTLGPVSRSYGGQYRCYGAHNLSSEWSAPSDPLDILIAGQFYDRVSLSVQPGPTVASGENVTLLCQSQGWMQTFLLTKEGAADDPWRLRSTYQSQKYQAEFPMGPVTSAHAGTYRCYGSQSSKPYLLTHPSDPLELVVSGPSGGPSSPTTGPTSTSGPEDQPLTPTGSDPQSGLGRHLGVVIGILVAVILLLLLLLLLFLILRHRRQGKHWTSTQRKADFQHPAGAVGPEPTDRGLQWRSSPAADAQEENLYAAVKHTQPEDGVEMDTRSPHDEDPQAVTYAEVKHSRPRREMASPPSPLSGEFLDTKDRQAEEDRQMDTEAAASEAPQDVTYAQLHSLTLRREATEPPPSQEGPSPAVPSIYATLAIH
UniProt P22629: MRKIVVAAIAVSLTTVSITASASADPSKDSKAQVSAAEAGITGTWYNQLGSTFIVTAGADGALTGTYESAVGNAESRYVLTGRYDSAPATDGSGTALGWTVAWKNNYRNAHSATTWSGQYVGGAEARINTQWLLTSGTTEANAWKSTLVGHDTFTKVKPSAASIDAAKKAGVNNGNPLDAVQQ

Columns and labels:
[1] = molecular target: T1, ILT2-SA tetramer (biotinylated BirA-tagged ILT2 on APC-conjugated streptavidin) (human) (UniProt Q8NHL6+P22629); test: flow cytometry blocking assay: antibody added to ILT2/APC-streptavidin complexes, then K562 cells expressing HLA-G; blocked ligand HLA-G
[2] = molecular target: T1, ILT2-SA tetramer (biotinylated BirA-tagged ILT2 on APC-conjugated streptavidin) (human); test: flow cytometry blocking assay: antibody pre-incubated with recombinant ILT2 (tetramer according to Example 6), then added to HLA-A2-expressing cells; blocked ligand HLA-A2; antibody concentration not shown
[3] = molecular target: T1, ILT2-SA tetramer (biotinylated BirA-tagged ILT2 on APC-conjugated streptavidin) (human); test: flow cytometry blocking assay: antibody pre-incubated with recombinant ILT2 (tetramer according to Example 6), then added to HLA-G-expressing cells; blocked ligand HLA-G; antibody concentration not shown
[4] = molecular target: T1, ILT2-SA tetramer (biotinylated BirA-tagged ILT2 on APC-conjugated streptavidin) (human); test: flow cytometry blocking assay: antibody added to ILT2/APC-streptavidin complexes, then WIL2-NS cells expressing HLA-A2; blocked ligand HLA-A2

- binding [1]: binds
- binding [2]: binds
- binding [3]: binds
- binding [4]: binds
B1: 12D12 (antibody, human IgG1, V domains shown)
VH: QVQLQQPGAELVKPGASVRMSCKASGYTFTSYWVHWVKQRPGQGLEWIGVIDPSDSYTSYNQNFKGKATLTVDTSSKTAYIHLSSLTSEDSAVYFCARGERYDGDYFAMDYWGQGTSVTVSS
VL: DIVMTQSPASLSVSVGETVTITCRASENIYSNLAWYQQKQGKSPQLLVYAATNLADGVPSRFSGSRSGTQYSLKINSLQSEDFGTYYCQHFWNTPRTFGGGTKLEIK

- binding [2]: binds
- binding [3]: binds
B2: 18E1 (antibody, human IgG1, V domains shown)
VH: QVQLQQSGAELVKPGASVRLSCKASGYTFTAHTIHWVKQRSGQGLEWIGWLYPGSGSIKYNEKFKDKATLTADKSSSTVYMELSRLTSEDSAVYFCARHTNWDFDYWGQGTTLTVSS
VL: NIVLTQSPASLAVSLGQRATISCKASQSVDYGGASYMNWYQQKPGQPPKLLIYAASNLESGIPARFSGSGSGTDLTLNIHPVEEEDAAMYYCQQSNEEPWTFGGGTKLEIK

- binding [2]: binds
- binding [3]: binds
B3: 26D8 (antibody, human IgG1, V domains shown)
VH: B2 VH with R19K, A31E, V37I, L51F, I58M, S84T
VL: B2 VL with N1D, A34D, E85D

- binding [1]: binds
- binding [4]: binds
B4: 48F12 (antibody, V domains shown)
VH: QVQLKESGPGLVAPSQSLSITCTVSGFSLTSYGVSWVRQPPGKGLEWLGIIWGDGSTNYHSALVSRLSISKDNSKSQVFLKLNSLQTDDTATYYCAKPNWDYYAMDYWGQGTSVTVSS
VL: DIQMTQTTSSLSASLGDRVTISCRASQDISNYLNWYQQKVDGTVKLLISYTSRLHSGVPSRFSGSGSGTDYSLTISNLEQEDIATYFCQQGITLPLTFGAGTKLELK
